Measured values: US6506881B1, “Anti-HMFG antibodies and processes for their production” (Celltech R&D Limited, priority 1991, dated 2003)
Results are given in words; binding and its absence hold for the method and conditions named. Some binding calls cover weakened binding; strength is not graded here.

Amino acid sequences for entries named in this document (tags omitted). Residues count along the entry.
UniProt P15941, residues 24-1255: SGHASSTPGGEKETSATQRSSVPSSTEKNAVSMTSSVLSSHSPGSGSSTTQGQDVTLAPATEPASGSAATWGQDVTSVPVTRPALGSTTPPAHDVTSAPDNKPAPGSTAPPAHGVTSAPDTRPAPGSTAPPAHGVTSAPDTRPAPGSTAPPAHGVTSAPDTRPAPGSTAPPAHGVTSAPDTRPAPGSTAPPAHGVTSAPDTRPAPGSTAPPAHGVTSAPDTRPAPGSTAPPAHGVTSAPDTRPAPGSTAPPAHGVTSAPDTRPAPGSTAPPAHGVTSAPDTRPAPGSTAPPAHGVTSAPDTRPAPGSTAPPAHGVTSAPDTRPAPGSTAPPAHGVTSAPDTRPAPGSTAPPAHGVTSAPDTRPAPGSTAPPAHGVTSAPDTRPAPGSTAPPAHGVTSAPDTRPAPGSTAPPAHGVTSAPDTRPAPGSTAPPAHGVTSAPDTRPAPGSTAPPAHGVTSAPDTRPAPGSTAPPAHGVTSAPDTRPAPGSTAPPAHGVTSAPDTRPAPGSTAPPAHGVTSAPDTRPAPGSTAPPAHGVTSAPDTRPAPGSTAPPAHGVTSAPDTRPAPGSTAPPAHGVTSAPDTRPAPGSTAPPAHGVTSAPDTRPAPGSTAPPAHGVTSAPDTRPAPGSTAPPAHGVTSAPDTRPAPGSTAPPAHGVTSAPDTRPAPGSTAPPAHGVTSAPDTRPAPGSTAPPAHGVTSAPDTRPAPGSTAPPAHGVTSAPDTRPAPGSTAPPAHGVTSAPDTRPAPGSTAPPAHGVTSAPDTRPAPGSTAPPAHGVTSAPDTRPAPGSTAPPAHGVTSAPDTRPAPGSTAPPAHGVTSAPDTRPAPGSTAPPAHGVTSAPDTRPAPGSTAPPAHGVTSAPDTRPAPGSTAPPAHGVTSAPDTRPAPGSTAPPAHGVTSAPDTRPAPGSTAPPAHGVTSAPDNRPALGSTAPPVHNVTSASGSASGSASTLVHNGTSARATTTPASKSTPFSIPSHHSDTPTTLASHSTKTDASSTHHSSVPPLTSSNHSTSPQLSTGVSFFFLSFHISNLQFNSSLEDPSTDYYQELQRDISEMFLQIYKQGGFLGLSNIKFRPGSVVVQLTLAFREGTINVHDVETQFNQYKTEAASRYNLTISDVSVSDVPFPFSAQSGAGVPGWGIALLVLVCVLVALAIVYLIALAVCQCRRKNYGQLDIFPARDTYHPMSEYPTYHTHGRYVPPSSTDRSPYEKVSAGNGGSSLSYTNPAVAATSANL

B1: gL1gH2IgG2 CTMO1 (antibody, V domains shown)
VH: QIQLVQSGAEVKKPGSSVKVSCKASGYTFTDYYINWMRQAPGQGLEWIGWIDPGSGNTKYNEKFKGRATLTVDTSTNTAYMELSSLRSEDTAFYFCAREKTTYYYAMDYWGQGTLVTVSS
VL: DIQMTQSPSTLSASVGDRVTITCRSSKSLLHSNGDTFLYWFQQKPGKAPKLLMYRMSNLASGVPSRFSGSGSGTEFTLTISSLQPDDFATYYCMQHLEYPFTFGQGTKVEVKR
B2: gL1gH2IgG4P CTMO1 (antibody, V domains shown)
VH: QIQLVQSGAEVKKPGSSVKVSCKASGYTFTDYYINWMRQAPGQGLEWIGWIDPGSGNTKYNEKFKGRATLTVDTSTNTAYMELSSLRSEDTAFYFCAREKTTYYYAMDYWGQGTLVTVSS
VL: DIQMTQSPSTLSASVGDRVTITCRSSKSLLHSNGDTFLYWFQQKPGKAPKLLMYRMSNLASGVPSRFSGSGSGTEFTLTISSLQPDDFATYYCMQHLEYPFTFGQGTKVEVKR

Biological target: antigen recognised by CTMO1 (believed to be the PEM of HMFG) on MCF-7 or MX-1 breast carcinoma cells (human) (UniProt P15941)
Test: 125I-labelled antibody on MX-1 or MCF-7 cells, 2 ug/million cells

Row | Binder | binding
1 | B1 | binds
2 | B2 | binds
